The chains behind the UniProt entries cited, without tags or fusion partners.
UniProt Q0JBA9, entry or part of it: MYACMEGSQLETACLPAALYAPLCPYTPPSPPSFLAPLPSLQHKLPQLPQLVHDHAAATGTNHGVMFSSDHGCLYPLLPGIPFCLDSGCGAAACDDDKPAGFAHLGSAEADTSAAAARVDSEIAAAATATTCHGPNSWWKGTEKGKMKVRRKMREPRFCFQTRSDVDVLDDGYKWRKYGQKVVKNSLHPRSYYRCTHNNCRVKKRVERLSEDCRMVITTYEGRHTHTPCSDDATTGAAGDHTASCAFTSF

The other results are listed elsewhere or left out.
These sequences were tested against OsWRKY34 (Oryza sativa, UniProt Q0JBA9 1-250) (assay: protein-binding microarray (RPBM); PBS, 2% BSA, 51.3 ng/ul salmon testes DNA, 50 uM zinc acetate, 200 nM TF, 25 C, 1 h; high values mean tight binding). Details: protein: recombinant; tags: N-terminal polyhistidine and DsRed monomer fusion (pET32a); label: CyDye5-dUTP incorporated in the synthesized complementary strand; 3' TTTTT single-stranded linker to array surface; dsDNA, one strand shown.
Procedure, shortened: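 Per-feature fluorescence intensity (arbitrary units), read on an Axon 4000B scanner, is the binding signal. Transcription factors carrying an N-terminal polyhistidine tag and DsRed fusion were expressed in E. coli BL21-CodonPlus and purified on Ni–NTA. A custom Agilent array, made double-stranded by primer extension with Cy5-dUTP and blocked with 2% BSA, was incubated with 200 nM protein in PBS, 2% BSA, salmon testes DNA and 50 µM zinc acetate at 25 °C for 1 h and then washed.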
With “AAACCGATCGCACACCCATCCGCCGGCGTCCTCAGCTCGACGGAGTCACCTAGTGCAG” the binding signal was 9860 fluorescence intensity (a.u.).
For “CCCCATGCGCCGCCCGCCCCTCCGCGTAGCAATTCGCCGGCGGAGTCACCTAGTGCAG”, the binding signal was 10600 fluorescence intensity (a.u.).
With “ACCCAGTCCCATTCCTCAAGCCCATTGGACACAACATGTCCGGAGTCACCTAGTGCAG” the binding signal was 9580 fluorescence intensity (a.u.).
With “ACATCCTACTCATGACACACTCATGCATGCCACCTCATCCCGGAGTCACCTAGTGCAG” the binding signal was 12200 fluorescence intensity (a.u.).
With “ACCATCAACGGCCCACCTCTCATCCGCAGCATATAACACCCGGAGTCACCTAGTGCAG” the binding signal was 9800 fluorescence intensity (a.u.).
For “TTGAGTTTGGATAATTAATTAATCATGTTTCTGTTCTTATCGGAGTCACCTAGTGCAG”, the binding signal was 8500 fluorescence intensity (a.u.).
With “GAGATTTGTTTGATGTATCAGGGTGTCACGTTGTCATGTTCGGAGTCACCTAGTGCAG” the binding signal was 11400 fluorescence intensity (a.u.).
In the case of “TGTTCAGTCACTCCACTATAAATATGCCACTGCAGTACTGCGGAGTCACCTAGTGCAG”, the binding signal was 10200 fluorescence intensity (a.u.).
“CAGCTCATTCATACATTAGTTATCTATAAATCATTAACATCGGAGTCACCTAGTGCAG” was tested, and the binding signal was 8590 fluorescence intensity (a.u.).
“TCCAGGTAACCCTTCGCTTTCCTCATTTCTGTATCGTTTCCGGAGTCACCTAGTGCAG” was tested, and the binding signal was 11600 fluorescence intensity (a.u.).
For “TTAACAAAATTATTCATAGCCGTTGACTCTAGATTTTGGCCGGAGTCACCTAGTGCAG”, the binding signal was 9000 fluorescence intensity (a.u.).
In the case of “GAGGAGAGGCGGGGTGAGACGGGACGGGAGGGTGGCGATGCGGAGTCACCTAGTGCAG”, the binding signal was 9530 fluorescence intensity (a.u.).
“TGCCGGCATTGTCATCGCATGCCATTCATCCACTCGACTTCGGAGTCACCTAGTGCAG” was tested, and the binding signal was 9500 fluorescence intensity (a.u.).
For “TTCACTATCTCAGCCATTCCTTTTGTACCGCTCTTGTTGACGGAGTCACCTAGTGCAG”, the binding signal was 9650 fluorescence intensity (a.u.).
“TTTTTTTTTGTTTTTTCTCAATAGTTTTTCTTTATTTCATCGGAGTCACCTAGTGCAG” was tested, and the binding signal was 8530 fluorescence intensity (a.u.).
With “TTCGAGCTATATGTCTCTATCTACATTTCATTATTGTTATCGGAGTCACCTAGTGCAG” the binding signal was 8220 fluorescence intensity (a.u.).
In the case of “TACTTGGTGCAGTGTTGAGCCTTGTTTTACAATAAATTTTCGGAGTCACCTAGTGCAG”, the binding signal was 8100 fluorescence intensity (a.u.).
With “CCAACTCACAAACTAACATGACTTTGACCTTGTTTATGCACGGAGTCACCTAGTGCAG” the binding signal was 8030 fluorescence intensity (a.u.).
In the case of “AATAGTCTGAAACAACTTGTAGTGTCTGTTTCCATGTTGCCGGAGTCACCTAGTGCAG”, the binding signal was 9580 fluorescence intensity (a.u.).
For “GCCGCACCCAACCAACCCGCCACCGTCTCCCACACGCGCCCGGAGTCACCTAGTGCAG”, the binding signal was 8380 fluorescence intensity (a.u.).
With “CCACATTCTCCATATTCTCAGAAGCTTGATACTAACTAGCCGGAGTCACCTAGTGCAG” the binding signal was 8110 fluorescence intensity (a.u.).
For “TCGGCTGTGCCTGTTCGCGACCGTTCGATTTCCTCCTGATCGGAGTCACCTAGTGCAG”, the binding signal was 9060 fluorescence intensity (a.u.).
For “CCCCATCCTTCACGTGCATCTGCATCTTCATCTTCTCTGCCGGAGTCACCTAGTGCAG”, the binding signal was 8080 fluorescence intensity (a.u.).
In the case of “AACGCCGCCACCTACCAAACGCATGAATCATACGAAATTTCGGAGTCACCTAGTGCAG”, the binding signal was 8160 fluorescence intensity (a.u.).
With “AATCAAAATCCCTCCTTTCCTTGGCTTGCATCCTTGTCACCGGAGTCACCTAGTGCAG” the binding signal was 8560 fluorescence intensity (a.u.).
For “CCTTCCGTGTACACCACCATCACACCCTCCCGTCCGTCCGCGGAGTCACCTAGTGCAG”, the binding signal was 8490 fluorescence intensity (a.u.).
With “CTTTTCAGTGTGACCGTGTCCACTTCACTTCACTTCGCCGCGGAGTCACCTAGTGCAG” the binding signal was 9010 fluorescence intensity (a.u.).
In the case of “TCTTCTCAATTGCCCTACATTACAAAGACGTACAGTGTCCCGGAGTCACCTAGTGCAG”, the binding signal was 8850 fluorescence intensity (a.u.).
For “CGCATGCAGCTTCACGTTTCTGATCTCTTCTTTTTGCTCGCGGAGTCACCTAGTGCAG”, the binding signal was 11900 fluorescence intensity (a.u.).
In the case of “ACAGTTCGTTACGGTCCTAACCGTATGTTTTTTATACCTCCGGAGTCACCTAGTGCAG”, the binding signal was 9500 fluorescence intensity (a.u.).
“TGTACATGGATGTAGCTTCTTCTTCTTCTTCTTCTGTTCACGGAGTCACCTAGTGCAG” was tested, and the binding signal was 10900 fluorescence intensity (a.u.).
In the case of “TTTTCACCATGTGTCATTGAAGCAATTATCTCGTTCATCACGGAGTCACCTAGTGCAG”, the binding signal was 8830 fluorescence intensity (a.u.).
“AGCTATCTTTTTGTGTTTCTTTTATTTTCCAGTTCTTGTACGGAGTCACCTAGTGCAG” was tested, and the binding signal was 14000 fluorescence intensity (a.u.).
With “TTGATTTCGTTGGGGTTTGCGTTGCGTGCGGAGGACGGGGCGGAGTCACCTAGTGCAG” the binding signal was 15200 fluorescence intensity (a.u.).
“GCTCCGCTGCTATAAGAAACCCACTGTTTTCCACTACTTACGGAGTCACCTAGTGCAG” was tested, and the binding signal was 10100 fluorescence intensity (a.u.).
In the case of “TTAAAGTTGGACAAGGAAAACCAGTCTTTGACTTTTTTTTCGGAGTCACCTAGTGCAG”, the binding signal was 8660 fluorescence intensity (a.u.).
With “AATTCGTTCTTGTAGTCTATTTTGATCGGTCGGTTGTTGACGGAGTCACCTAGTGCAG” the binding signal was 13300 fluorescence intensity (a.u.).
For “GTCTAACAGGGCCGCTTCCCGTGGTCGATCTTACCAGGCCCGGAGTCACCTAGTGCAG”, the binding signal was 8480 fluorescence intensity (a.u.).
“ATTGGGGCGGCGGTGGCGGGCTAGGGTTTCGTAGATTCGACGGAGTCACCTAGTGCAG” was tested, and the binding signal was 9960 fluorescence intensity (a.u.).
In the case of “ATCGGGGAAGGGTCGTTCGGGGTGGTGTACTCCGGCGCGGCGGAGTCACCTAGTGCAG”, the binding signal was 16000 fluorescence intensity (a.u.).
“GATTTTTTCCCTGCTCTTTGATCTCCTCCTCCTCTCTCTCCGGAGTCACCTAGTGCAG” was tested, and the binding signal was 8120 fluorescence intensity (a.u.).
“TCTCGCGTTTCTTGCTGGCTGACGATCCTTCCACATACAGCGGAGTCACCTAGTGCAG” was tested, and the binding signal was 9520 fluorescence intensity (a.u.).
With “CGGCTCTTCGGCGCGTGTCACGTAAGAGAGTCGGCCAACCCGGAGTCACCTAGTGCAG” the binding signal was 8540 fluorescence intensity (a.u.).
For “GCAACTCCTCACCTCTGCATTGTCTCCGCGTAGCTGAGCACGGAGTCACCTAGTGCAG”, the binding signal was 8220 fluorescence intensity (a.u.).
In the case of “TTCGCCACATTCCTTTTTTTTCAATCGGACAGATTCTTTTCGGAGTCACCTAGTGCAG”, the binding signal was 8790 fluorescence intensity (a.u.).
For “ACTCGTTCCCGCCCGTAATGTCAACTTGGATTAATATATACGGAGTCACCTAGTGCAG”, the binding signal was 9300 fluorescence intensity (a.u.).
With “CTCCTACCTCTCATTTGTTTGGAGTAACTTTTGTTTCGCACGGAGTCACCTAGTGCAG” the binding signal was 8240 fluorescence intensity (a.u.).
In the case of “GCATAATTAAGAACATATACTTTCCCAGCATGTTCTGTGACGGAGTCACCTAGTGCAG”, the binding signal was 10300 fluorescence intensity (a.u.).
“CCGACGCCACCGCCCACGTGTCCTCTCCTCCCACCCGCCACGGAGTCACCTAGTGCAG” was tested, and the binding signal was 8880 fluorescence intensity (a.u.).
In the case of “TCTACCCGCCTTCCTTTTAGTCCCCGCGTCTCCACAAAATCGGAGTCACCTAGTGCAG”, the binding signal was 10100 fluorescence intensity (a.u.).
With “CAACGTACATGCTACTAAATTTTGATCATTACTGTGCAGTCGGAGTCACCTAGTGCAG” the binding signal was 8120 fluorescence intensity (a.u.).
For “CCTCATCCTGGCCGTCCATCCGCTCCAGTTCCGCCTCTTCCGGAGTCACCTAGTGCAG”, the binding signal was 13300 fluorescence intensity (a.u.).
In the case of “ACTTGAATCGAGTTGAAGGTATTCATCTCTCTCTCCTACTCGGAGTCACCTAGTGCAG”, the binding signal was 8080 fluorescence intensity (a.u.).
“GACCAATCAACGCAGCTCTCGTCTCCTCTGTTTATATAAACGGAGTCACCTAGTGCAG” was tested, and the binding signal was 9900 fluorescence intensity (a.u.).
